Results reported in the supplement of paper PMC4635364.
Counter-ions that a name gives are not always drawn. The list shows a part of the results. Repeats in this data set agree poorly, so a single value says little.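 ReNCell VM, a human fetal ventral-midbrain neural progenitor line, was differentiated without mitogens. Blinded raters scored images stained for doublecortin (early neurons) or tyrosine hydroxylase (dopaminergic neurons) against untreated wells (0 = no change). Scores were averaged across repeats and both raters, and compounds averaging 2 or more were selected as hits for retesting.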

Tests used:
ReNCell VM [1] = experiment: neuronal differentiation score (DCX+ cell fraction vs untreated, manual image score) (score (-3 to 3)); higher = more neuronal differentiation; conditions: 2 uM, 2 weeks
ReNCell VM [2] = experiment: dopaminergic neuron differentiation score (TH+ cell fraction vs untreated, manual image score) (score (0 to 3)); higher = more TH+ dopaminergic neuron differentiation; conditions: 2 uM, 4 weeks, BDNF 10 ng/ml + GDNF 10 ng/ml

## COc1ccccc1C1(O)CCN(CCCn2c3ccccc3c3ccccc32)CC1 [NNC 05-2090 hydrochloride]
ReNCell VM [1]; library: Tocriscreen
  neuronal differentiation score: inactive: 0
ReNCell VM [2]; library: Tocriscreen
  dopaminergic neuron differentiation score: inactive: 0

## CC1(CN2CCC(n3c(=O)[nH]c4ccccc43)CC2)OCc2ccccc2-n2cccc21 (centres undefined)
ReNCell VM [1]; library: Tocriscreen
  neuronal differentiation score: inactive: 0
ReNCell VM [2]; library: Tocriscreen
  dopaminergic neuron differentiation score: inactive: 0

## CCN(CCCc1ccccc1)CCCc1ccccc1
ReNCell VM [1]; library: Spectrum
  neuronal differentiation score: inactive: 0
ReNCell VM [2]; library: Spectrum
  dopaminergic neuron differentiation score: inactive: 0

## CC1(C)C(=O)[C@H]2C[C@]3(O)C4=CC(=O)O[C@@H](c5ccoc5)[C@@]4(C)CCC3[C@](C)(C2=O)[C@H]1CC(=O)O (some centres undefined)
ReNCell VM [1]; library: Spectrum
  neuronal differentiation score: inactive: 0
ReNCell VM [2]; library: Spectrum
  dopaminergic neuron differentiation score: inactive: 0

## CCCOc1ccc2[nH]c(NC(=O)OC)nc2c1
ReNCell VM [1]; library: Spectrum
  neuronal differentiation score: inactive: 0
ReNCell VM [2]; library: Spectrum
  dopaminergic neuron differentiation score: inactive: 0

## CO/N=C1\CN(c2nc3c(cc2F)c(=O)c(C(=O)O)cn3C2CC2)CC1CN (centres undefined)
ReNCell VM [1]; library: Spectrum
  neuronal differentiation score: inactive: 0
ReNCell VM [2]; library: Spectrum
  dopaminergic neuron differentiation score: inactive: 0

## Nc1nc(=S)c2ncn([C@@H]3O[C@H](CO)[C@@H](O)[C@H]3O)c2[nH]1 [Thioguanosine]
ReNCell VM [1]; library: Prestwick
  neuronal differentiation score: inactive: 0
ReNCell VM [2]; library: Prestwick
  dopaminergic neuron differentiation score: inactive: 0

## CC(=O)OC[C@@]1(O)C[C@@]23CC[C@@H]4c5ccoc5CC[C@@]4(C)[C@@H]2CC[C@@H]1C3
ReNCell VM [1]; library: Spectrum
  neuronal differentiation score: inactive: 0
ReNCell VM [2]; library: Spectrum
  dopaminergic neuron differentiation score: inactive: 0

## O=C(O)Cc1c[nH]c2ccc(O)cc12 [5-Hydroxyindolacetic acid]
ReNCell VM [1]; library: LOPAC
  neuronal differentiation score: inactive: 0
ReNCell VM [2]; library: LOPAC
  dopaminergic neuron differentiation score: inactive: 0

## CCc1ccc(CCOc2ccc(CC3SC(=O)NC3=O)cc2)nc1 (centres undefined)
ReNCell VM [1]; library: Spectrum
  neuronal differentiation score: inactive: 0
ReNCell VM [2]; library: Spectrum
  dopaminergic neuron differentiation score: inactive: 0

## Cc1nc(-c2coc3c(O)c(O)ccc3c2=O)cs1 [7,8-dihydroxy-3-(2-methyl-thiazol-4-yl)-chromen-4-one]
ReNCell VM [1]; library: Natural
  neuronal differentiation score: inactive: -3
ReNCell VM [2]; library: Natural
  dopaminergic neuron differentiation score: inactive: 0

## COc1ccc([C@H]2c3cc(OC)c(OC)cc3C[C@@H](C)[C@@H]2C)cc1OC [galbulin]
ReNCell VM [1]; library: Natural
  neuronal differentiation score: inactive: 0
ReNCell VM [2]; library: Natural
  dopaminergic neuron differentiation score: inactive: 0

## O=C(O)C(CO)c1ccccc1 (centres undefined) [Tropic acid]
ReNCell VM [1]; library: Phytochemical
  neuronal differentiation score: inactive: 0
ReNCell VM [2]; library: Phytochemical
  dopaminergic neuron differentiation score: inactive: 0

## C=CCn1c(=O)c2c(nc(-c3ccc(S(=O)(=O)O)cc3)n2C)n(C)c1=O [1-Allyl-3,7-dimethyl-8-p-sulfophenylxanthine]
ReNCell VM [1]; library: LOPAC
  neuronal differentiation score: inactive: 1
ReNCell VM [2]; library: LOPAC
  dopaminergic neuron differentiation score: inactive: 0

## Cc1ccc(-c2ncc(Cl)cc2-c2ccc(S(C)(=O)=O)cc2)cn1 [Etoricoxib]
ReNCell VM [1]; library: Prestwick
  neuronal differentiation score: inactive: 0
ReNCell VM [2]; library: Prestwick
  dopaminergic neuron differentiation score: inactive: 0

## CC(Nc1ccc2oc(=O)ccc2c1)=C1C(=O)CC2C1C2(C)C (centres undefined)
ReNCell VM [1]; library: Natural
  neuronal differentiation score: inactive: 0
ReNCell VM [2]; library: Natural
  dopaminergic neuron differentiation score: inactive: 0

## Cc1nc(N=Nc2ccc(C(=O)O)cc2)c(COP(=O)(O)O)c(C=O)c1O
ReNCell VM [1]; library: LOPAC
  neuronal differentiation score: inactive: 1
ReNCell VM [2]; library: LOPAC
  dopaminergic neuron differentiation score: inactive: 0

## Cc1ccccc1N1C(=O)c2cc(S(N)(=O)=O)c(Cl)cc2NC1C (centres undefined)
ReNCell VM [1]; library: Spectrum
  neuronal differentiation score: inactive: 0
ReNCell VM [2]; library: Spectrum
  dopaminergic neuron differentiation score: inactive: 0

## Cc1nnc(SCC2=C(C(=O)O)N3C(=O)[C@@H](NC(=O)Cn4cnnn4)[C@H]3SC2)s1
ReNCell VM [1]; library: Spectrum
  neuronal differentiation score: inactive: 0
ReNCell VM [2]; library: Spectrum
  dopaminergic neuron differentiation score: inactive: 0

## CCCCCCN(CCCCCC)C(=O)Cc1c(-c2ccc(F)cc2)[nH]c2ccccc12
ReNCell VM [1]; library: Tocriscreen
  neuronal differentiation score: inactive: 0
ReNCell VM [2]; library: Tocriscreen
  dopaminergic neuron differentiation score: inactive: 0

## O=c1oc2cc(O)ccc2s1
ReNCell VM [1]; library: Spectrum
  neuronal differentiation score: inactive: 0
ReNCell VM [2]; library: Spectrum
  dopaminergic neuron differentiation score: inactive: 0

## CC(=O)NCCc1c(Cc2ccccc2)[nH]c2ccccc12 [Luzindole]
ReNCell VM [1]; library: Tocriscreen
  neuronal differentiation score: inactive: 0
ReNCell VM [2]; library: Tocriscreen
  dopaminergic neuron differentiation score: inactive: 0

## OC(CNCC(O)C1CCc2cc(F)ccc2O1)C1CCc2cc(F)ccc2O1 (centres undefined) [Nebivolol hydrochloride]
ReNCell VM [1]; library: Tocriscreen
  neuronal differentiation score: inactive: 1
ReNCell VM [2]; library: Tocriscreen
  dopaminergic neuron differentiation score: inactive: 0

## COc1ccccc1OCC(O)CN1CCN(CC(=O)Nc2c(C)cccc2C)CC1 (centres undefined)
ReNCell VM [1]; library: Spectrum
  neuronal differentiation score: inactive: 0
ReNCell VM [2]; library: Spectrum
  dopaminergic neuron differentiation score: inactive: 0

## Cn1cccc1/C=C1\C(=O)NC(=O)c2ccccc21
ReNCell VM [1]; library: Tocriscreen
  neuronal differentiation score: inactive: 0
ReNCell VM [2]; library: Tocriscreen
  dopaminergic neuron differentiation score: inactive: 0

## Cc1nccnc1N1CCCCC1
ReNCell VM [1]; library: Spectrum
  neuronal differentiation score: inactive: 0
ReNCell VM [2]; library: Spectrum
  dopaminergic neuron differentiation score: inactive: 0

## COc1c(O)cc2oc3cc(O)c(CC=C(C)C)c(O)c3c(=O)c2c1CC=C(C)C [mangostine]
ReNCell VM [1]; library: Natural
  neuronal differentiation score: inactive: 0
ReNCell VM [2]; library: Natural
  dopaminergic neuron differentiation score: inactive: 0

## Cn1c(=O)c2[nH]c(C3CCCC3)nc2n(C)c1=O [8-Cyclopentyl-1,3-dimethylxanthine]
ReNCell VM [1]; library: LOPAC
  neuronal differentiation score: inactive: -1
ReNCell VM [2]; library: LOPAC
  dopaminergic neuron differentiation score: inactive: 0

## COc1cc(C)c(C(=O)Oc2cc(C)c(C(=O)O)c(O)c2C)c(OC)c1C
ReNCell VM [1]; library: Spectrum
  neuronal differentiation score: inactive: 0
ReNCell VM [2]; library: Spectrum
  dopaminergic neuron differentiation score: inactive: 0

## CCN(CC)CCNC(=O)c1ccc(NC(C)=O)cc1
ReNCell VM [1]; library: Spectrum
  neuronal differentiation score: inactive: 0
ReNCell VM [2]; library: Spectrum
  dopaminergic neuron differentiation score: inactive: 0

## CCSC(=N)N [S-Ethylisothiourea hydrobromide]
ReNCell VM [1]; library: LOPAC
  neuronal differentiation score: inactive: 0
ReNCell VM [2]; library: LOPAC
  dopaminergic neuron differentiation score: inactive: 0

## COc1cc2c(cc1O)-c1ccccc1CN(C)C2 [3-methoxy-6-methyl-6,7-dihydro-5h-dibenzo[c,e]azepin-2-ol]
ReNCell VM [1]; library: Natural
  neuronal differentiation score: inactive: 0
ReNCell VM [2]; library: Natural
  dopaminergic neuron differentiation score: inactive: 0
